The results in this text go back to publication PMC13429570.

Chains of the proteins cited; added tags and fusions are not shown.
UniProt P04198: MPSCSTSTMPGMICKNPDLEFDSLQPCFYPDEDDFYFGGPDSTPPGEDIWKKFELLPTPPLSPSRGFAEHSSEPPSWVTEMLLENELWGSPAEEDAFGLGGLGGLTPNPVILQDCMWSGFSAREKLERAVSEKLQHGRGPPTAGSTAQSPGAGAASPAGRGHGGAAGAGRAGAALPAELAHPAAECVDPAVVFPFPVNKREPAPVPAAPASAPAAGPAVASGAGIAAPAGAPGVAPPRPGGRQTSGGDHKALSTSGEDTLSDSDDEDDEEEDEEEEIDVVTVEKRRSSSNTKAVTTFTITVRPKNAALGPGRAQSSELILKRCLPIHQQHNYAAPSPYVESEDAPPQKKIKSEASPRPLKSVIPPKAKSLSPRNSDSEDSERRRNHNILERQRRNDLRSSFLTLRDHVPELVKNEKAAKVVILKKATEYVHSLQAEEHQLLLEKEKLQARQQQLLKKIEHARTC
UniProt Q92841: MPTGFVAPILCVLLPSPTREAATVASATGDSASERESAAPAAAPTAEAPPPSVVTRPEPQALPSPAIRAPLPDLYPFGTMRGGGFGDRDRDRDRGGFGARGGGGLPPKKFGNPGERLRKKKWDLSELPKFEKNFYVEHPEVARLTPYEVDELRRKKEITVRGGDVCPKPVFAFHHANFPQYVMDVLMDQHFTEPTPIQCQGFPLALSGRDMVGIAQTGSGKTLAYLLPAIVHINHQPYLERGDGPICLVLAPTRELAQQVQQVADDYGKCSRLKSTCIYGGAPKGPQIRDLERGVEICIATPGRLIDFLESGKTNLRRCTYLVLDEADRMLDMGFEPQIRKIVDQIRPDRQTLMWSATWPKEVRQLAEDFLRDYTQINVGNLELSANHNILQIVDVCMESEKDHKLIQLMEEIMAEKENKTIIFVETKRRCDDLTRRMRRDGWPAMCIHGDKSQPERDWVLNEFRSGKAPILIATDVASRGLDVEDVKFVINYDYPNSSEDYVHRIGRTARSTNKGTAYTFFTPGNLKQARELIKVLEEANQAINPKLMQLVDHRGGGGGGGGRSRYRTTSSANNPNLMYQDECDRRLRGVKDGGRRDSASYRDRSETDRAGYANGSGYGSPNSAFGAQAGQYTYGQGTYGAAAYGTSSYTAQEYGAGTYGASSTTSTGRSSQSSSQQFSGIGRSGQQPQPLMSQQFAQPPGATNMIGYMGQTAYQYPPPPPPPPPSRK

For this assay, the target named is MYCN (human (endogenous in SK-N-BE(2))) (UniProt P04198). In words: co-IP; IP of endogenous MYCN (mouse anti-MYCN) from SK-N-BE(2) lysate, pre-treated or not with 250 U/ml Benzonase; IP buffer 20 mM Tris-HCl pH 7.5, 150 mM NaCl, 2 mM EDTA, 1% NP40, 10% glycerol; overnight at 4 °C; western blot for DDX17 and DDX5.

Results are given in words; binding and its absence hold for the method and conditions named. Binding seen in cells or lysates may run through a third protein. Some entries that bind do so weakly or less than the wild type.

Consider “DEAD box helicase DDX17 (from UniProt Q92841 1-729)”, for which the binding result is “binds”.
